The record followed here is US20100092409A1 (DANISCO US, published 2010).

Protein sequences, listed by entry. Tags and fused reporters are not part of them. Lines headed by an entry give the natural chain unless they say otherwise; changes in a name come on top. Chains listed by the source or under a name are the forms on record and can include a tag or linker. Residues count along the entry.
vascular endothelial growth factor (VEGF) (P15692-4, form named): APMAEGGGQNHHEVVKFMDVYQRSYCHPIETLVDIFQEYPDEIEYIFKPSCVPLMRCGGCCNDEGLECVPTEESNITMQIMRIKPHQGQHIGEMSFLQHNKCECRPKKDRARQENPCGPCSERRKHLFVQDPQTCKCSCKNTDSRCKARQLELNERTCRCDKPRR
UniProt P01375, residues 77-233: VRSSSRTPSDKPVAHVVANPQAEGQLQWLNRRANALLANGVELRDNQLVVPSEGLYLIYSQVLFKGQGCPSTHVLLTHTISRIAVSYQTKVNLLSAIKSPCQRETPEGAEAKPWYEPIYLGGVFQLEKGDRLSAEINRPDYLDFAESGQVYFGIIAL
UniProt P01137, residues 279-390: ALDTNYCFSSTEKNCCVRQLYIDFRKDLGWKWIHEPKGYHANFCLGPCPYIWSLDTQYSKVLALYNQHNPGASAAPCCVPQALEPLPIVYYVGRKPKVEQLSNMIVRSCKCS

Substitutions are numbered along the chain they refer to. In names and notes the source's numbering stands. No constants are given. Whether binding was seen depends on the method and setting. Some binding calls cover weakened binding; strength is not graded here. For some assays here: Sequences can lack the tags named with a protein.

Sequences and labels used below:
T1: fibroblast growth factor 5 (FGF-5) (UniProt P12034)
T1 sequence (looked up): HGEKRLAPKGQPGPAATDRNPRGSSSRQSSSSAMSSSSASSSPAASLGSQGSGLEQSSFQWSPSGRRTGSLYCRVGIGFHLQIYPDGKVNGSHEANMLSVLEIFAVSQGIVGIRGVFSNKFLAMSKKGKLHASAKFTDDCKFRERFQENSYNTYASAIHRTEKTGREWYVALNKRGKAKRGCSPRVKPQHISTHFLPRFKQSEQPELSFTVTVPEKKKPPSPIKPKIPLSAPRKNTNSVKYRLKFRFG

B1: 2BBIck81 (BBI-AV; Bowman-Birk Inhibitor Anti-VegF) (designed binder)
chain: DDESSKPCCDQCACTKSNPPQCRCSDMRLNSCHSACKSCACYNLYGWTCFCVDITDFCYEPCKPSEDDKEN
B2: BBIt-TNFα-T2-A13I-S25R-M27A-L29P-S31A-F50K-V52T (designed binder)
chain: DPDDESSKPCCDQCICTKSNPPQCRCRDARPNACHSACKSCACAPEPILACKCTDITDFCYEPCKPSE
notes: also called BBIt-TNF-T2
B3: BBIt-TNFα-T3-A13I-S25R-M27A-L29P-S31A-F50K-V52T (designed binder)
chain: B2 chain with A44D, P45M, E46I, P47M, I48V, L49S, A50I
notes: also called BBIt-TNF-T3
B4: BBIt-TNFα-T1-A13I-S25R-M27A-L29P-S31A-F50K-V52T (designed binder)
chain: B2 chain with A44R, P45Y, E46W, P47Q, I48D, L49I, A50P
notes: also called BBIt-TNF-T1
B5: FGFps2-Q-BBIt-FGF-5 (designed binder)
chain: DPDDESSKPCCDQCICTKSNPPQCRCSDMRPNSCHSACKSCACTWIDSTPCTCADITDFCYEPCKPSE
notes: also called BBIt-FGFps2-Q-A13I-L29P-F50T-V52A
B6: MM007-Q-BBIt-FGF-5 (designed binder)
chain: B5 chain with T44R, W45T, I46Q, D47P, S48Y, T49P, P50L
notes: also called BBIt-MM007-Q-A13I-L29P-F50T-V52A
B7: PEN3-Q-BBIt-TGFβ1 (designed binder)
chain: DPDDESSKPCCDQCICTKSNPPQCRCSDMRPNSCHSACKSCACPENINVLPCTCADITDFCYEPCKPSE
notes: also called BBIt-PEN3-Q-A13I-L29P-F50T-V52A
B8: MM021W-Q-BBIt-TGFβ1 (designed binder)
chain: B5 chain with T44K, W45H, I46N, D47V, S48D, T49W, P50L
notes: also called BBIt-MM021W-Q-A13I-L29P-F50T-V52A
B9: BBdb-AV (Dolichos biflorus Bowman Birk Inhibitor with CK37281 in the second protease inhibitory loop) (designed binder)
chain: DPSESSKPCCDQCACTKSIPPQCRCTDVRLNSCHSACSSCACYNLYGWTCVCVDMKDFCYEPCK
notes: also called BBIdb-AV
B10: BBIt-VEGF-V5-A13I-S25R-M27A-L29P-S31A-F50K-V52T (designed binder)
chain: B2 chain with A44K, E46S, P47S, I48A, L49S, A50S
notes: also called BBIt-AV-V5
B11: BBIt-VEGF-V1-A13I-S25R-M27A-L29P-S31A-F50K-V52T (designed binder)
chain: B2 chain with A44S, P45K, E46H, P47S, I48Q, L49I, A50T
notes: also called BBIt-AV-V1
B12: BBIt-VEGF-V2-A13I-S25R-M27A-L29P-S31A-F50K-V52T (designed binder)
chain: B2 chain with A44K, P45T, E46N, I48S, L49G, A50S
notes: also called BBIt-AV-V2
B13: BBIt-VEGF-V6-A13I-S25R-M27A-L29P-S31A-F50K-V52T (designed binder)
chain: B2 chain with A44P, P45V, E46T, P47K, I48R, L49V, A50H
notes: also called BBIt-AV-V6
B14: BBIt-VEGF-V4-A13I-S25R-M27A-L29P-S31A-F50K-V52T (designed binder)
chain: B2 chain with A44K, P45H, E46S, P47A, I48K, L49A, A50E
notes: also called BBIt-AV-V4
B15: BBIt-VEGF-V3-A13I-S25R-M27A-L29P-S31A-F50K-V52T (designed binder)
chain: B2 chain with A44R, E46T, P47G, I48H, L49S, A50L
notes: also called BBIt-AV-V3
B16: BBIt-AV-A13I-L29P-A40K-F50T-V52A (designed binder)
chain: B5 chain with A42K, T44Y, W45N, I46L, D47Y, S48G, T49W, P50T
notes: also called TA5; quintuple variant
B17: BBIt-AV-A13I-S25K-M27A-L29R-S31A-A40H-F50R-V52L (designed binder)
chain: DPDDESSKPCCDQCICTKSNPPQCRCKDARRNACHSACKSCHCYNLYGWTCRCLDITDFCYEPCKPSE
notes: also called RL8
B18: BBIt-AV-A13I-S25K-M27A-L29R-S31E-A40K-F50Q-V52Q (designed binder)
chain: B17 chain with A33E, H42K, R52Q, L54Q
notes: also called QQ8
B19: BBIt-AV-A13I-S25R-M27A-L29P-S31A-A40H-F50K-V52T (designed binder)
chain: B17 chain with K27R, R31P, R52K, L54T
notes: also called KT8
B20: BBIt-AV-A13I-A40K-F50T-V52A (designed binder)
chain: B17 chain with K27S, A29M, R31L, A33S, H42K, R52T, L54A
B21: BBIt-VEGKD-A13I-S25K-L29P-V52K (designed binder)
chain: DPDDESSKPCCDQCICTKSNPPQCRCKDMRPNSCHSACKSCICKYDLYWWCFCKDITDFCYEPCKPSE
notes: also called VegKD-Q
B22: BBtc-AV (Torresea cearensis Bowman Birk Inhibitor with CK37281 in the second protease inhibitory loop) (designed binder)
chain: DPSSKWEACCDRCACTKSIPPQCHCADIRLNSCHSACESCACYNLYGWTCRCFDITDFCYKPCSG
notes: also called BBItc-AV
B23: BBsb3-AV (soybean protease inhibitor IV or D-II with CK37281 in the second protease inhibitory loop) (designed binder)
chain: DPDDEYSKPCCDLCMCTRSMPPQCSCEDIRLNSCHSDCKSCACYNLYGWTCRCLDTNDFCYKPCKSRDD
B24: 1BBIck81 (BBI with the CK37281 peptide in the trypsin inhibitory loop) (designed binder)
chain: DDESSKPCCDQCACYNLYGWTCRCSDMRLNSCHSACKSCICALSYPAQCFCVDITDFCYEPCKPSEDDKEN
B25: BBIt-AV (truncated BBI-AV, unmodified variant) (designed binder)
chain: DDESSKPCCDQCACTKSNPPQCRCSDMRLNSCHSACKSCACYNLYGWTCFCVDITDFCYEPCKPSE
notes: also called CT

For the first test, the target named is T2, vascular endothelial growth factor (VEGF) (UniProt P15692-4 27-191, limits assumed, labeled with biotin for the BioVeris assay (sites not given)). In words: BioVeris ECL competition; ECL-labeled Anti-VegF antibody, biotinylated VegF, streptavidin beads.
In the case of B1, the binding entry is listed as “binds”.

Another test addresses tumor necrosis factor α (TNFα) (UniProt P01375). In words: BioVeris ECL competition (summary of Table 7).
As to B2, the binding entry is “binds”.

Regarding B3, the binding entry is given as “binds”.

In the case of B4, the binding result is given as “binds”.

The next test deals with T1, fibroblast growth factor 5 (FGF-5). In words: BioVeris ECL competition (summary of Table 7).
Regarding B5, the binding entry is on record as “binds”.

Take B6: the binding result is on record as “binds”.

In another test the target is transforming growth factor β1 (TGFβ1) (UniProt P01137). The experiment in a line: BioVeris ECL competition (summary of Table 7).
For B7, the binding result is listed as “binds”.

B8: the binding entry is “binds”.

In the next test the target is T2, vascular endothelial growth factor …. In words: BioVeris ECL competition (summary of Table 7).
For B9, the binding entry is listed as “binds”.

On to B10, for which the binding result is “binds”.

In the case of B11, the binding entry is “binds”.

As for B12, the binding result is listed as “binds”.

For the molecule B13, the binding result is reported as “binds”.

As to B14, the binding entry is “binds”.

As for B15, the binding result is “binds”.

For the molecule B16, the binding entry is listed as “binds”.

In the case of B17, the binding result is “binds”.

As to B18, the binding entry is recorded as “binds”.

Regarding B19, the binding entry is “binds”.

Regarding B20, the binding entry is recorded as “binds”.

B21: the binding result is on record as “binds”.

In the case of B22, the binding result is given as “binds”.

The target is the same in the next test. The experiment in a line: BioVeris ECL competition; competitor monoclonal antibody against VEGF.
Turning to B1, the binding result is given as “binds”.

A further test shares this target. The experiment in a line: no row for BBsb3-AV in Table 7.
B23: the binding result is “binds”.

The target is the same in the next test. The experiment in a line: BioVeris ECL competition; competitor Anti-VegF antibody.
Consider ACYNLYGWTC [CK37281 peptide (synthesized VEGF binding peptide)], for which the binding entry is reported as “binds”.

As to B1, the binding result is reported as “binds”.

For the molecule B24, the binding entry is given as “binds”.

For another test the target is unchanged. In words: ECL (BioVeris) competition; competitor labeled monoclonal antibody against VEGF.
As for B1, the binding result was “binds”.

With B25, the binding result is “binds”.
